The target of assay [1] is T1, human thrombin receptor (PAR1) (human) (UniProt P25116).
T1 sequence (looked up): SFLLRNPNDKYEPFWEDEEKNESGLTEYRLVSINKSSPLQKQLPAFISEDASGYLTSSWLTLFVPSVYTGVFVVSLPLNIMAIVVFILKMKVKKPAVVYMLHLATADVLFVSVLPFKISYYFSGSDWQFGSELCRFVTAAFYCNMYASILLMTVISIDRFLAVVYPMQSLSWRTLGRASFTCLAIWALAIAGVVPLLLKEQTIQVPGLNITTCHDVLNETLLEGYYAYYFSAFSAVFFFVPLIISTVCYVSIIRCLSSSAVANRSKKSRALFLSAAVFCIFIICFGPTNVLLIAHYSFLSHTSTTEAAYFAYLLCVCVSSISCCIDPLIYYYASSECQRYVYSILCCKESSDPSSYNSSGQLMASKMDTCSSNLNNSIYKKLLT
Put plainly: panning, G12 library, CHO PAR1.

By UniProt entry, the sequences of proteins in these tests, tags left out.
UniProt P02699: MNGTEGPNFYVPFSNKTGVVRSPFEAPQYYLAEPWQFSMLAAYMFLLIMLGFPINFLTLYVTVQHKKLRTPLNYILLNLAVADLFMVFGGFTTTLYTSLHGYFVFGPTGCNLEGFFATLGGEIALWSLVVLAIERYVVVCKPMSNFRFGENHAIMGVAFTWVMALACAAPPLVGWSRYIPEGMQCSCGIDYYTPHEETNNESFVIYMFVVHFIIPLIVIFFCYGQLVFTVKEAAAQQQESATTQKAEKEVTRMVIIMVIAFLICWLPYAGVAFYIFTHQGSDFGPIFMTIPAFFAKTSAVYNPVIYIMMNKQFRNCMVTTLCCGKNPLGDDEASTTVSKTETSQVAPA

Assay [2] addresses light-activated rhodopsin (bovine) (UniProt P02699). The experiment in a line: panning, LacI-displayed Gt library.
Assay [3] addresses T1, human thrombin receptor (PAR1) (human). Put plainly: panning, Gt library, CHO PAR1.
For assay [4] the target is unchanged. The experiment in a line: panning, G13 library, CHO PAR1.
The target is the same in assay [5]. Put plainly: panning, G11 library, CHO EXPRESSED PAR1.
For assay [6] the target is unchanged. Put plainly: panning, LacI-displayed Gq library, CHO PAR1 membranes.

These are yes or no findings as the source states them, for the method shown. Some entries that bind do so weakly or less than the wild type.

Regarding WQHKLSEVMLQ, in assay [1], the binding result is listed as “binds”.

Turning to ICENLKECGLF [light-activated rhodopsin clone 10 …], in assay [2], the binding entry was “binds”.

Consider IQGVLKDCGLL [light-activated rhodopsin clone 9 …], for which the binding result in assay [2] is “binds”.

Consider ICERLNDCGLC, for which the binding entry in assay [3] was “binds”.

With LQDNLRHLMLQ, in assay [4], the binding result was “binds”.

For RRGNGKDCRHF, in assay [3], the binding entry is given as “binds”.

For LEENLKYRMLD, the binding entry in assay [1] is on record as “binds”.

As to LQETMKDQSLQ, the binding result in assay [1] is listed as “binds”.

Turning to FWGNLQDSGLF, the binding result in assay [3] is recorded as “binds”.

Take LKEHLMERMLQ: the binding result in assay [1] was “binds”.

As for IREFLTDCGLF, the binding entry in assay [3] was “binds”.

As for LQEDLKGMTLQ, the binding entry in assay [1] is listed as “binds”.

PQVNLKSIMRQ: the binding entry in assay [1] is “binds”.

Regarding LQANRKLGMLQ, the binding result in assay [4] is reported as “binds”.

As for LQDKINHLMLQ, in assay [4], the binding entry was “binds”.

Take LQENLKEMMLQ: the binding entry in assay [1] is listed as “binds”.

For the molecule LIVKVKQLIWQ, the binding entry in assay [4] is listed as “binds”.

IRLDLKDVSLF: in assay [3], the binding entry was “binds”.

Take PRDNTKVRGLF: the binding result in assay [3] is on record as “binds”.

With LLGMLEPLMEQ, in assay [1], the binding result is reported as “binds”.

As to LQDNRNQLLF, the binding result in assay [4] is reported as “binds”.

For MRAKLNNLMLE, in assay [4], the binding result is given as “binds”.

For LHLNLKEYNLV [C7-13 …], the binding entry in assay [5] and in assay [6] was “binds” throughout.

With LQQKLKEYSLV [C7-14 …], the binding result in assay [5] and in assay [6] was “binds” each time.

Turning to LQDNLRHLIQ, the binding entry in assay [4] is reported as “binds”.
